Source: PubChem BioAssay AID651640 (Broad Institute, 2012)
Several values for one entry are separate records, joined by “and”; a condition that tells them apart may be missing. Identical values can stand only once. Among all 350,000 compounds or so, about 6,000 (1.7%) were called active. Inconclusive results, whose numbers are uncertain, are shown with a selection of clear calls. Cut-off read from the data, not from the text of the source: active = CPE inhibition above about 20% (passing the limit was not always enough); inconclusive = no clear call, values can overlap the other calls; tested in BHK-21 cells.

test: protection of cells from dengue 2 killing – plate reader, single concentration, primary screen (AID 651640); conditions: DENV2-infected cells, cytopathic effect rescue, at 9.99 µM, hits give high values;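 note: 0% = median of neutral control wells and 100% = median of positive control wells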

SMILES | CPE inhibition
O=S1(=O)CC(N2CCN(CC3CC3)CC2)CN1Cc1cn(Cc2ccccc2C(F)(F)F)nn1 (centres undefined) | inconclusive: 31.2%
CCN(CC)CCn1c2c(c(SCC(=O)Nc3cc(C)on3)nc1=O)CCCC2 | inconclusive: 40.6%
Cc1cc(C)c(C)c(S(=O)(=O)NCc2ccc(C(=O)NCC3CCCO3)cc2)c1C (centres undefined) | inconclusive: 24.9%
COc1ccc2c3c([nH]c2c1)[C@@H](CO)N(Cc1cccc(Cl)c1)CC31CN(C)C1 | inconclusive: 24.3%
Cc1ccccc1-c1cnc2c(c1)C(=O)N([C@H](C)CO)C[C@@H](C)[C@@H](CN(C)Cc1ccncc1)O2 | inconclusive: 28.5%
CCCCNC(=O)C1(C)CCN1C(=O)c1cncc(Br)c1 (centres undefined) | active: 86.1%
CC(=O)Nc1ccc(NC(=O)CSc2nc(C)nc3sc(C)c(C)c23)cc1 | inconclusive: 28.9%
COc1cccc(-c2ccc3n(c2=O)C[C@H]2[C@H](CO)[C@@H](C(=O)N(C)C)[C@@H]3N2CC2CC2)c1 | inactive: 5.04%
CCCCCCN1C[C@@H](n2cc(COC(=O)c3ccccc3)nn2)[C@H](O)C[C@@H]1c1ccc(C)cc1 | inconclusive: 20.1%
O=C(O)C1CCCCC1C(=O)N1CCN(S(=O)(=O)c2ccc(F)cc2)CC1 (centres undefined) | active: 70.6%
O=C(C1CCCCC1)N1CC2(C1)[C@@H](c1ccccc1)[C@@H](CO)N2CC1CCCC1 | active: 69.4%
Cc1c2cnn(CC(=O)N3CCOCC3)c(=O)c2c(C)n1Cc1ccccc1F | inconclusive: 29.3%
Cc1cccc(S(=O)(=O)c2c(N)n(-c3ccccc3)c3nc4ccccc4nc23)c1 | inconclusive: 42.7%
CN(C)CC(=O)N[C@H]1CC[C@H](CCNC(=O)C2CC2)O[C@@H]1CO | inconclusive: 8.09%
CC(C)NC(=S)N(CCc1ccncc1)C(C)C | inconclusive: 23.6%
Cc1cc(=O)[nH]c(=O)n1Cc1ccccc1 | inactive: -7.39%
COc1cccc(C2=CC(=O)C(C(C)(C)C)N2C(C)(C)C)c1 (centres undefined) | active: 41.4%
C[C@@H]1CN([C@@H](C)CO)C(=O)Cc2cc(NC(=O)NC3CCCCC3)ccc2O[C@@H]1CN(C)C(=O)Nc1cccc2ccccc12 | inactive: 5.8%
C/C(=N/NS(=O)(=O)c1ccc(C)cc1)c1ccc(NC(=O)C(F)(F)F)cc1 | inconclusive: 43.4%
O=C(Nc1ccc(Cl)cc1)N1C[C@@H]2[C@H](c3ccccc31)[C@@H](CO)N2CC1CCCCC1 | inactive: -0.462%
COc1ccc2c(C(=O)c3ccc(C)cc3)n(CCC(N)=O)[n+]([O-])c2c1 | inconclusive: 39.2%
CCOC(=O)C1=C(CS(=O)(=O)c2ccc(C)cc2)NC(=O)NC1c1cc(OC)c(O)c(OC)c1 (centres undefined) | active: 36.6%
Cc1noc(NS(=O)(=O)c2ccc(NC(=O)/C=C/c3ccc(C(C)C)cc3)cc2)c1C | inactive: -1.17%
C[C@@H]1CN([C@H](C)CO)C(=O)c2cc(NS(=O)(=O)c3cccs3)ccc2O[C@@H](C)CCCCO[C@H]1CN(C)Cc1ccc2c(c1)OCO2 | active: 54.6%
COc1ccc2c(c1)N(C[C@H](C)CN(C)C)c1ccccc1S2 | inconclusive: 24.6%

SMILES | CPE inhibition
C=C1[C@@H](O)[C@H](Cc2ccccc2)N(Cc2ccccc2Br)S1(=O)=O | inactive: 3.12%
Cc1cc(C(=O)N2CCCC2)n[nH]1 | inconclusive: 52.2%
C[C@@H]1CCCCO[C@H](CN(C)Cc2ccc(Cl)c(Cl)c2)[C@H](C)CN([C@@H](C)CO)C(=O)c2cc(NC(=O)c3ccccc3)ccc2O1 | active: 82.1%
Cc1[nH]c2ccccc2c1CC(=O)Nc1ccc(N(C)c2cccnc2)c(-c2ccc(F)c(F)c2)c1 | active: 83.5%
O=C(NCc1ccc(F)cc1)c1cc(C2CCCCN2C(=O)OCCF)on1 (centres undefined) | inconclusive: 20.9%
CCOC(=O)c1sc(NC(=O)COC(=O)CNC(=O)c2ccco2)c(C(=O)OCC)c1C | inconclusive: 30.6%
COc1ccc(C(CC(=O)N2CCCCC2)c2c(OC)cc(OC)c3c(-c4ccccc4)cc(=O)oc23)cc1 (centres undefined) | active: 71.5%
C[C@@H]1CCCCO[C@@H](CN(C)Cc2ccccc2)[C@H](C)CN([C@H](C)CO)C(=O)c2cc(NC(=O)Nc3ccc(F)cc3)ccc2O1 | active: 41%
C=CCSc1n[nH]c(=O)n1-c1cccc(C(F)(F)F)c1 | inconclusive: 34.4%
CN1C(=O)NC(c2ccccc2[N+](=O)[O-])C2=C1CCCC2=O (centres undefined) | inconclusive: 42.9%
CCC(=O)N(C1=C(NC(C)C)C(=O)c2ccccc2C1=O)C(C)C | inactive: -6.75%
Cc1ccc(S(=O)(=O)Nc2ccc3c(c2)C(=O)N([C@@H](C)CO)C[C@@H](C)[C@H](CN(C)C(=O)Nc2ccccc2)O3)cc1 | inconclusive: 20.1%
CN1CCC(=C2c3ccccc3CC(=O)c3sccc32)CC1 | inconclusive: 62.8% and inconclusive: 22.4%
CN(C)C(=O)c1ccc(-c2ccc(C3[C@H]4CNC[C@@H]3N4C(=O)NC3CCCCC3)cc2)cc1 (some centres undefined) | inactive: -8.12%
C[C@@H]1CN([C@@H](C)CO)C(=O)c2c(c3ccccc3n2C)-c2ccccc2CO[C@H]1CN(C)Cc1ccncc1 | inactive: 12.9%
C[C@@H]1CCCCO[C@@H](CN(C)S(=O)(=O)c2ccccc2)[C@H](C)CN([C@@H](C)CO)C(=O)c2cc(NC(=O)c3ccccc3)ccc2O1 | inconclusive: 37.4%
Cc1ccccc1CN1C(=O)c2ccccc2Sc2ccc(C(=O)NCCCN3CCOCC3)cc21 | inconclusive: 53.2%
COc1cccc(-n2nc3c(=O)n(Cc4ccccc4Cl)nc(C)c3c2C)c1 | inconclusive: 22.2%
O=C1O[C@@H](Cc2ccccc2)[C@H]2[C@@H]3C=CCCC=C3CN2C12CCCC2 | active: 32.9%
O=C(NCCc1ccccc1)Nc1nnc([C@H]2C[C@H](O)[C@@H](CO)O2)s1 | inconclusive: 44.4%
C[C@H]1CN([C@@H](C)CO)C(=O)c2cccc(NC(=O)c3ccncc3)c2O[C@@H]1CN(C)CC1CCCCC1 | inactive: 4.43%
COc1cc(CC(=O)Nc2nc(-c3ccccc3)c(C(C)=O)s2)cc(OC)c1OC | inconclusive: 21.8%
CC(C)(C)OC(=O)NCc1ccc(CNC(=O)c2[nH]cnc2C(=O)N[C@@H](Cc2ccccc2)C(=O)OCc2ccccc2)cc1 | inconclusive: 22.1%
C[C@H](CO)N1C[C@H](C)[C@H](CN(C)Cc2ccccc2)Oc2c(NS(=O)(=O)c3ccc(F)cc3)cccc2C1=O | active: 104%
COc1ccccc1CN(C)C(=O)c1cccc(S(=O)(=O)N2CCCc3ccccc32)c1 | active: 80.7%

SMILES | CPE inhibition
CCOC(=O)c1c(C)[nH]c(C(=O)OCC(=O)NC(C)C)c1C | inconclusive: 43.7%
CCN(CC(=O)NCc1cccs1)C(=O)c1ccc([N+](=O)[O-])o1 | inconclusive: 32.3%
CC(=O)Nc1nnc(-c2c(-c3ccccc3Cl)noc2C)o1 | inconclusive: 24.6%
CN(C[C@@H]1[C@H](c2ccccc2)[C@H](CO)N1C(=O)C1CC1)C(=O)c1ccccn1 | inconclusive: 6.6%
C[C@H]1CN([C@@H](C)CO)C(=O)Cc2cc(NC(=O)c3ccncc3)ccc2O[C@@H]1CN(C)C(=O)Nc1ccccc1 | inconclusive: 55.1%
COc1ccc(/C=C2/SC(=S)N(CCCC(=O)N3CCN(C)CC3)C2=O)cc1 | inconclusive: 20.1%
CCOC(=O)Nc1c(Cl)[nH]c(=O)n(C)c1=O | inconclusive: 20.9%
Cc1ccc(S(=O)(=O)N2CCN(C(=O)COC(=O)CCCOc3ccccc3)CC2)c(C)c1 | inconclusive: 23.8%
O=C(CSc1nnc2ccc(-c3ccccn3)nn12)Nc1ccc(F)cc1F | inactive: 1.59%
O=C(N/N=C/c1cccc([N+](=O)[O-])c1)c1cc[n+](CCO)cc1 | inactive: 11.5%
CC(C)CC#Cc1cnc2c(c1)C(=O)N([C@@H](C)CO)C[C@H](C)[C@@H](CN(C)Cc1ccccc1C(=O)O)O2 | inconclusive: 36%
COc1ccc2c3c(n(C)c2c1)[C@H](CO)N(C(C)=O)CC31CCN(C(=O)C2CCOCC2)CC1 | inconclusive: 87.8%
O=C(O)C[C@@H]1C[C@@H]2c3cc(NC(=O)C4CCOCC4)ccc3O[C@@H]2[C@H](CO)O1 | active: 27.6%
Cc1ccc(C(C)C)c(OCCNC(=O)c2ccccc2O)c1 | active: 44.6%
C[C@@H]1CN([C@@H](C)CO)C(=O)c2cc(NC(=O)CCC(F)(F)F)ccc2O[C@@H](C)CCCCO[C@@H]1CN(C)S(=O)(=O)c1ccc(F)cc1 | inactive: -3.44%
Cc1ccc(S(=O)(=O)N[C@@H]2CC[C@@H](CC(=O)N3CCc4ccccc4C3)O[C@@H]2CO)cc1 | inconclusive: 21.8%
Cc1ccccc1-c1nc(NC(C)C)nc2cc(-c3ccccc3)sc12 | inconclusive: 38.3%
O=C(C1CC(=O)N(C2CCCCC2)C1)N1CCN(c2ccccc2)CC1 (centres undefined) | inconclusive: 20.8%
C=CCC(=O)N1CCC(n2nccc2NC(=O)c2ccc3c(c2)OCO3)CC1 | inactive: -0.704%
Cc1noc(/C=C/N(C)C)c1S(=O)(=O)N1CCN(c2ccc(F)cc2)CC1 | inconclusive: 32.5%
CCN1C(=O)[C@@H]2[C@@H](c3ccc(SC4CCCCC4)cc3)N3CCC[C@@]3(C(=O)OC)[C@@H]2C1=O | inconclusive: 33.4%
Cc1cccc(C)c1NC(=S)NC(C)(C)CO | inconclusive: 44.2%
CCCCCC1CC(CC/C(C)=N/NC(N)=O)C(=O)O1 (centres undefined) | inconclusive: 42.4%
C[C@H]1CN([C@@H](C)CO)S(=O)(=O)c2ccc(-c3cccc(C#N)c3)cc2O[C@@H]1CN(C)Cc1ccccn1 | inconclusive: 0.685%
